{"source": "PubChem BioAssay AID504467", "about": "(National Center for Advancing Translational Sciences (NCATS), 2011)", "note": "Out of some 330,000 compounds screened, about 7,700 (2.3%) were called active. The inconclusive results got no clear call from the source; some entries with a clear call stand among them for comparison. The call rests on the fitted dose curve; in most records, active means well fitted inhibition curve with a large enough effect; inconclusive means small, poorly fitted or top-dose-only effect, or effect the other way; inactive means flat fitted curve, though single readings scatter. A potency beside an inconclusive call is a rough fit, not a confirmed value. On the % scale 0 is the no-effect control and ±100 the full control effect; potency means the concentration at half of the fitted maximal effect."}
{"assay": "qHTS screen for small molecules that inhibit ELG1-dependent DNA repair in human embryonic kidney (HEK293T) cells expressing luciferase-tagged ELG1; further: nearly all actives have a fitted effect of over 55% in size", "conditions": "HEK293T ELG1-luciferase reporter, luminescence, 16 h, DNA damage induced by 5-fluorouridine; activity change, negative = inhibition: at 46.1 µM (top of the series)", "how_it_was_run": "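Overnight (16 hr) co-exposure of 2,000 cells/well to 5-fluorouridine and compound at 37 °C preceded detection. Luciferase was quantified via ONE-Glo luminescence; loss of signal denotes inhibition.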"}
{"smiles": "Cc1nnc(SCC(=O)Nc2nc3ccccc3s2)n(N)c1=O", "Potency": "inconclusive: 16.4 µM [activator, single point]"}
{"smiles": "Cc1ccccc1CNC(=O)c1ccccc1N(C)S(=O)(=O)c1ccccc1", "activity change, negative = inhibition": "inactive: -20.7%"}
{"smiles": "Cc1onc(-c2ccccc2Cl)c1C(=O)OCc1cnc(Cl)s1", "activity change, negative = inhibition": "inactive: -13.1%"}
{"smiles": "O=C(/C=C/c1ccc(Cl)c([N+](=O)[O-])c1)c1ccc(O)cc1", "Potency": "inconclusive: 29.1 µM [inhibitor, single point]"}
{"smiles": "COc1ccc(/C=C/C(=O)NC(=S)Nc2ccc(S(=O)(=O)N=C(N)N)cc2)cc1OC", "activity change, negative = inhibition": "inactive: 2.5%"}
{"smiles": "CNc1oc(-c2cccs2)nc1S(=O)(=O)c1ccccc1", "activity change, negative = inhibition": "inactive: -18.6%"}
{"smiles": "c1ccc(OCCn2cnc3ccccc32)cc1", "Potency": "inconclusive: 11.6 µM [activator, partial curve]"}
{"smiles": "COc1ccc(NC(=O)Cc2c[nH]c3ccccc23)cc1S(=O)(=O)N1CCCCC1", "activity change, negative = inhibition": "inactive: -9.21%"}
{"smiles": "C[C@@H]1C(=O)O[C@H]2[C@H]1CC[C@@]1(C)C(=O)C=C[C@@](C)(O)[C@H]21", "Potency": "inconclusive: 14.6 µM [activator, partial curve, poor fit]"}
{"smiles": "CNC(=S)N(CCc1c(C)[nH]c2ccc(C)cc12)Cc1ccc(OC)c(OC)c1", "Potency": "inconclusive: 20.6 µM [inhibitor, single point]"}
{"smiles": "Nc1ccc(-c2n[nH]c(=O)c3ccccc23)cc1N", "activity change, negative = inhibition": "inactive: -4.04%"}
{"smiles": "CN(C)/N=C/c1cn(-c2ccccc2)nc1-c1cccnc1", "activity change, negative = inhibition": "inactive: -24.6%"}
{"smiles": "O=C(N/N=C/C(Br)=C/c1ccccc1)C1CC1", "Potency": "inconclusive: 16.4 µM [activator, partial curve]"}
{"smiles": "CC1=NN(c2ccc(C)cc2C)C(=O)C1C(c1ccccc1O)C1C(=O)N(c2ccc(C)cc2C)N=C1C", "note": "(stereo unspecified)", "Potency": "inconclusive: 18.4 µM [activator, partial curve, poor fit]"}
{"smiles": "C/C(=N\\NC(=O)c1ccccc1)c1cccc(Br)c1", "Potency": "inconclusive: 18.3 µM [activator, partial curve]"}
{"smiles": "COC(=O)N/N=C/c1cn(CCCOc2ccc(C)cc2)c2ccccc12", "Potency": "inconclusive: 29.1 µM [inhibitor, single point]"}
{"smiles": "COc1ccc(-c2n[nH]c(=S)n2-c2ccc(C)cc2)cc1OC", "activity change, negative = inhibition": "inactive: 17.1%"}
{"smiles": "CC1CCC(=NNC(=O)Cc2ccccc2)CC1", "note": "(stereo unspecified)", "activity change, negative = inhibition": "inactive: 1.39%"}
{"smiles": "COc1cc(NC(=O)C(=O)NNC(=O)C2CCCCC2)c(OC)cc1Cl", "activity change, negative = inhibition": "inactive: -5.36%"}
{"smiles": "Cc1ccc(O)c(NC(=O)c2ccc3c(c2)C(=O)N(CC(C)C)C3=O)c1", "Potency": "inconclusive: 2 µM [activator, full curve]"}
{"smiles": "COc1ccccc1Cn1c(=S)[nH]c2cc(C(=O)NCC3CCCO3)ccc2c1=O", "note": "(stereo unspecified)", "Potency": "inconclusive: 25.9 µM [inhibitor, partial curve, poor fit]"}
{"smiles": "O=C(N=C1SCC(=O)N1c1ccccc1Cl)c1ccco1", "Potency": "inconclusive: 16.4 µM [activator, partial curve]"}
{"smiles": "CCc1ccc(/C=C2/C(=O)N(CC)C(=S)N2C)s1", "Potency": "inconclusive: 16.4 µM [activator, partial curve]"}
{"smiles": "COc1cc(NC(=O)c2ccc(N)nc2)cc(C(=O)Nc2cccc(C(F)(F)F)c2)c1", "Potency": "inconclusive: 20.6 µM [activator, partial curve]"}
{"smiles": "O=C(Nc1ccc2c(c1)CN(Cc1ccccc1O)CC2)C1CCCO1", "note": "(stereo unspecified)", "Potency": "inconclusive: 0.259 µM [inhibitor, single point]"}
{"smiles": "COc1ccc(Cc2n[nH]c(=O)c3ccccc23)cc1OC", "Potency": "inconclusive: 20.6 µM [activator, single point]"}
{"smiles": "CCOC(=O)C1(Cc2cccc(OC)c2)CCN(C2CCOCC2)CC1", "Potency": "inconclusive: 8.2 µM [activator, partial curve]"}
{"smiles": "CCOC(=O)C1(CCc2ccccc2)CCN(Cc2cc(OC)c(OC)cc2OC)CC1", "Potency": "inconclusive: 18.3 µM [inhibitor, partial curve]"}
{"smiles": "O=C(CN1CCN(C(=O)c2ccccc2)CC1)NC(=O)NCCC1=CCCCC1", "Potency": "inconclusive: 29.1 µM [inhibitor, single point]"}
{"smiles": "Cc1ccc(NC(=O)c2ccc(Cl)cc2Cl)cc1O", "Potency": "inconclusive: 20.6 µM [activator, partial curve]"}
{"smiles": "O=C(COc1ccccc1F)N1N=C(c2cccs2)CC1c1ccco1", "note": "(stereo unspecified)", "activity change, negative = inhibition": "inactive: 1.32%"}
{"smiles": "CCCCNC(=O)NNC(=O)c1cc(C)on1", "activity change, negative = inhibition": "inactive: 0%"}
{"smiles": "O=C(/C=C/c1ccco1)NC(=S)Nc1ccccc1", "Potency": "inconclusive: 35.5 µM [activator, single point]"}
{"smiles": "CCOc1ccc(NC(=O)Nc2nc(SCC)ns2)cc1", "activity change, negative = inhibition": "inactive: -20.4%"}
{"smiles": "CCc1nc(-c2ccc(-c3ccc(OC)cc3)nc2OC)no1", "Potency": "inconclusive: 14.6 µM [activator, partial curve]"}
{"smiles": "Cc1cc(Cl)ccc1NC(=S)NCc1ccc(F)cc1", "Potency": "inconclusive: 11.2 µM [inhibitor, single point]"}
{"smiles": "Cn1nnnc1SCC(=O)N1CCN(c2cccc(Cl)c2)CC1", "Potency": "inconclusive: 4.11 µM [inhibitor, partial curve, poor fit]"}
{"smiles": "CCc1ccc(C(=O)COc2ccc(NC(C)=O)cc2)cc1", "Potency": "inconclusive: 20.6 µM [activator, partial curve, poor fit]"}
{"smiles": "Cc1ccc2c(CC(=O)N3CCN(S(=O)(=O)c4ccc5c(c4)OCCO5)CC3)coc2c1", "Potency": "inconclusive: 16.4 µM [inhibitor, single point]"}
{"smiles": "CC(C)Oc1ccc(CNC(=O)c2ccc3c(c2)N(C)CCS3)cc1", "Potency": "inconclusive: 32.6 µM [inhibitor, partial curve, poor fit]"}
{"smiles": "Cn1c(COc2ccc(Cl)cc2Cl)nnc1SCC(=O)NCC1CCCO1", "note": "(stereo unspecified)", "activity change, negative = inhibition": "inactive: 11.7%"}
{"smiles": "NNc1nc(-c2ccccc2Cl)nc2sc3c(c12)CCCC3", "Potency": "inconclusive: 8.2 µM [activator, partial curve]"}
{"smiles": "S=C(NCc1ccccc1)Nc1ccc(Oc2ccccc2)cc1", "activity change, negative = inhibition": "inactive: -19.5%"}
{"smiles": "Cc1ccc(NC(=O)C2CCN(c3ncnc4sc(C)c(C)c34)CC2)cc1S(=O)(=O)N(C)C", "Potency": "inconclusive: 8.2 µM [inhibitor, single point]"}
{"smiles": "Cc1ccc(-c2noc(-c3ccccc3C(=O)N3CCOCC3)n2)cc1", "Potency": "inconclusive: 16.4 µM [activator, single point]"}
{"smiles": "Cc1ccc(NC(=O)c2noc3c2CCCCC3)cc1", "Potency": "inconclusive: 7.31 µM [activator, partial curve]"}
{"smiles": "O=C(CCC1CCCC1)NNC(=O)COc1ccc(Br)cc1", "Potency": "inconclusive: 18.3 µM [activator, partial curve, poor fit]"}
{"smiles": "CCCN(CCC)Cc1c(C(=O)N/N=C/c2ccc(Br)cc2)nnn1-c1nonc1N", "activity change, negative = inhibition": "inactive: -12.6%"}
{"smiles": "C#CCOCCOCCOCCNc1nc(N2CCN(C(=O)CCCCCCCCCCNC(=O)Cn3cc(C[C@@H](C)O)nn3)CC2)nc(N2CCN(C(=O)CCCCCCCCCCNC(=O)Cn3cc(C[C@@H](C)O)nn3)CC2)n1", "Potency": "inconclusive: 14.1 µM [inhibitor, single point]"}
{"smiles": "Cc1ccc(C(=O)ON=C2CCN(c3ccc([N+](=O)[O-])cc3)CC2)cc1", "activity change, negative = inhibition": "inactive: -2.6%"}
{"smiles": "Cc1ccc(NC(=S)Nc2nc(CC(=O)Nc3ccccc3)cs2)cc1", "Potency": "inconclusive: 18.4 µM [activator, single point]"}
{"smiles": "Cc1sc(NC(=O)CN(Cc2ccc(F)cc2)C(=O)C(C)(C)C)c(C(N)=O)c1C", "Potency": "inconclusive: 11.6 µM [inhibitor, partial curve, poor fit]"}
{"smiles": "COc1ccc(-c2nc(CN3CCN(c4ncnc5ccccc45)CC3)c(C)o2)c(OC)c1", "Potency": "active: 7.3 µM"}
{"smiles": "Cc1ccc2c(CC(=O)NNC(=O)c3ccncc3)coc2c1", "Potency": "inconclusive: 7.3 µM [activator, single point]"}
{"smiles": "O=C(Nc1ccccc1Cl)c1cc2ccccc2o/c1=N\\O", "Potency": "inconclusive: 2.06 µM [activator, full curve]"}
{"smiles": "CCc1nc(N2CCCC2C(=O)O)c2oc3ccccc3c2n1", "note": "(stereo unspecified)", "activity change, negative = inhibition": "inactive: 0.249%"}
{"smiles": "Cc1cn([C@H](C(=O)NCCCCCCCCCCC(=O)N2CCNCC2)[C@@H](C)O)nn1", "Potency": "inconclusive: 35.5 µM [activator, single point]"}
{"smiles": "CC(=O)N1N=C(c2c(-c3ccccc3)c3cc(C)ccc3[nH]c2=O)CC1c1ccco1", "note": "(stereo unspecified)", "Potency": "active: 23.1 µM"}
{"smiles": "CCN(CC(=O)Nc1c(F)cccc1F)C(=O)c1nn(C)c(=O)c2ccccc12", "activity change, negative = inhibition": "inactive: 15.6%"}
{"smiles": "O=S(=O)(c1cc(C(F)(F)F)ccc1Cl)N1CCCCCC1", "activity change, negative = inhibition": "inactive: 0%"}
{"smiles": "Cc1nc2ccccc2c2oc(C(=O)N3CCN(c4ccc([N+](=O)[O-])cc4)CC3)cc12", "Potency": "inconclusive: 3.26 µM [inhibitor, partial curve, poor fit]"}
{"smiles": "O=C1/C(=C\\c2ccsc2)N2CCC1CC2", "activity change, negative = inhibition": "inactive: 15.9%"}
{"smiles": "O=C1CCCN1c1ccc(C(=O)N(Cc2nnc(-c3ccccc3Cl)o2)C2CC2)cc1", "activity change, negative = inhibition": "inactive: -2.67%"}
{"smiles": "COc1ccc(-c2cc(C(=O)N3CCC3)c3ccccc3n2)cc1OC", "Potency": "inconclusive: 29.1 µM [inhibitor, single point]"}
{"smiles": "Cc1ccc(NC(=O)CNc2cccc(S(=O)(=O)N3CCOCC3)c2)cc1F", "Potency": "inconclusive: 8.2 µM [inhibitor, partial curve, poor fit]"}
{"smiles": "CCOC(=O)C1C(c2ccc3c(c2)OCO3)NC(=O)NC1(O)C(F)(F)F", "note": "(stereo unspecified)", "activity change, negative = inhibition": "inactive: -0.128%"}
{"smiles": "CN(C)c1ccc(N2CC(C)(C)C2=O)cc1", "Potency": "inconclusive: 20.6 µM [activator, partial curve]"}
{"smiles": "CCN(CC)c1nc(C#N)cc(-c2ccc(OC)cc2)n1", "Potency": "inconclusive: 9.2 µM [inhibitor, partial curve]"}
{"smiles": "O=C(NC(=S)NCCC1=CCCCC1)c1ccc(Br)o1", "Potency": "inconclusive: 16.4 µM [activator, partial curve]"}
{"smiles": "CCN(C(=O)CSc1ccc2ccccc2n1)C1CCCCC1", "activity change, negative = inhibition": "inactive: -26.5%"}
{"smiles": "O=C(Nc1nc2ccccc2[nH]1)C1CCCO1", "note": "(stereo unspecified)", "Potency": "inconclusive: 23.1 µM [activator, partial curve]"}
